Some of these results come from one statement about several compounds together. At least one compound was matched to its structure with a doubt left. Some compounds share one range, which may span the group rather than tell each member.
Test system: BRCA2-mutant breast cancer PDX
Test: BRCA2-mutant breast cancer PDX
Assay type: in vivo, CB-17/SCID mice
Conditions: 50 mg/kg i.g.; range over the listed analogs
Method: Tumor tissues or cells were subcutaneously implanted in CB-17/SCID mice. […] An equivalent solvent was used as a control. The longest (L) and shortest (W) tumor axes were measured, and tumor volume (mm^3) was calculated as L×W^2/2. In addition, the body weights of tumor-bearing mice were recorded twice a week to determine toxicity.
None of the analogs affected the body weights of tumor-bearing mice (FIG. 32D), indicating no obvious toxicity was observed.

| SMILES | decrease in tumor weight |
| --- | --- |
| O=C1/C(=C/c2ccc(F)c(F)c2)CC(NC(=O)c2ccc(OCCN3CCCCC3)cc2)C/C1=C\c1ccc(F)c(F)c1 (stereo not shown) [JCS016, N-(3,5-Bis((E)-3,4-difluorobenzylidene)-4-oxocyclohexyl)-4-(2-(piperidin-1-yl)ethoxy)benzamide] | 26-80% |
| COCCN(CCOC)CCOc1ccc(C(=O)NC2C/C(=C\c3ccc(F)c(F)c3)C(=O)/C(=C/c3ccc(F)c(F)c3)C2)cc1 (stereo not shown) [JCS025] | 26-80% |
| O=C1/C(=C/c2ccc(F)c(F)c2)CC(NC(=O)c2ccc(NCCN3CCCC3)cc2)C/C1=C\c1ccc(F)c(F)c1 (stereo not shown) [JCS027, N-(3,5-Bis((E)-3,4-difluorobenzylidene)-4-oxocyclohexyl)-4-((2-(pyrrolidin-1-yl)ethyl)amino)benz-amide] | 26-80% |
| CN1CCCC1CCNc1ccc(C(=O)NC2C/C(=C\c3ccc(F)c(F)c3)C(=O)/C(=C/c3ccc(F)c(F)c3)C2)cc1 (stereo not shown) [JCS041, N-(3,5-Bis((E)-3,4-difluorobenzylidene)-4-oxocyclohexyl)-4-((2-(1-methylpyrrolidin-2-yl)ethyl)-amino)benzamide] | 26-80% |
| CN1CCN(CCNc2ccc(C(=O)NC3C/C(=C\c4ccc(F)c(F)c4)C(=O)/C(=C/c4ccc(F)c(F)c4)C3)cc2)CC1 (stereo not shown) [JCS043, N-(3,5-Bis((E)-3,4-difluorobenzylidene)-4-oxocyclohexyl)-4-((2-(4-methylpiperazin-1-yl)ethyl)amino)benzamide] | 26-80% |
| O=C1/C(=C/c2cc(Cl)cc(Cl)c2)CC(NC(=O)c2ccc(NCCN3CCCC3)cc2)C/C1=C\c1cc(Cl)cc(Cl)c1 (stereo not shown) [JCS063, N-(3,5-Bis((E)-3,5-dichlorobenzylidene)-4-oxocyclohexyl)-4-((2-(pyrrolidin-1-yl)ethyl)amino)-benzamide] | 26-80% |
| CCN1CCC[C@H]1CNc1ccc(C(=O)NC2C/C(=C\c3ccc(F)c(F)c3)C(=O)/C(=C/c3ccc(F)c(F)c3)C2)cc1 (stereo partly drawn) [JCS069, N-(3,5-Bis((E)-3,4-difluorobenzylidene)-4-oxocyclohexyl)-4-((((S)-1-ethylpyrrolidin-2-yl)methyl)-amino)benzamide] | 26-80% |
